Results reported in PubChem BioAssay AID296 (DTP/NCI, 2004).
The list is a part of this screen's results and no random one: it gathers tests that were run many times, whatever their T/C, doses with no T/C, and many T/C values between a quarter and a half above the control. Further doses and runs are listed elsewhere. T/C is the treated group as % of the vehicle group. Schedules are NCI's codes, read here as Q, the interval in days (D) or hours (H), X, the number of doses. Some T/C values carry the count of animals alive at the toxicity check (mostly the fifth day); without a count, all were alive then. Some doses have a count of surviving animals in place of a T/C: the source holds a T/C of zero for them, seemingly a mark for toxic or unscored doses. Survivors were counted at the toxicity check, usually on the fifth day, unless a day is given; later deaths do not show. Some entries were tested several times; the values are given in rising order.

System: MX-1 breast xenograft, nude mice, tumor weight T/C
Test: NCI In Vivo Anticancer Drug Screen. Data for tumor model Human Mammary Carcinoma MX-1 Xenograft (intrarenal inoculation) in NU/NU Swiss (nude) mice
Details: T/C endpoint: mean tumor weight change, higher T/C = larger tumour; for T/C: evaluated on day 11
Outline: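 Tumor-bearing mice were treated with test compound alongside a vehicle-treated control group. Survival or tumor size was measured, and activity is expressed as the treated-group value divided by the control-group value.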

[1] = dose: 200.0 mg/kg/injection, schedule: Q01DX010 (sc), vehicle: saline
[2] = dose: 100.0 mg/kg/injection, schedule: Q04DX003 (sc), vehicle: suspension in saline

SMILES: COc1c(O)c2c(c3cc(C(=O)N4CCc5c4c(O)c(OC)c4[nH]c(C(=O)N6CC7CC78C6=CC(=O)c6[nH]cc(C)c68)cc54)[nH]c13)CCN2C(N)=O (stereo unspecified)
- T/C (dose: 50.0 micrograms/kg/injection, schedule: Q01DX010 (sc), vehicle: DMSO): 131 % of control
- T/C (dose: 200.0 micrograms/kg/injection, schedule: Q01DX010 (sc), vehicle: DMSO): 136 % of control

SMILES: Cc1ccc(C2NC(=S)N3C(c4ccc(C)cc4)NC(=S)N23)cc1 (stereo unspecified)
- T/C (dose: 1200.0 mg/kg/injection, schedule: Q04DX003 (sc), vehicle: Klucel (hydroxypropylcellulose) (HPC)): 135 % of control [5 of 6 alive on day 11]

SMILES: COC1=C(OC)C(=O)C(C/C=C(\C)CC/C=C(\C)CC/C=C(\C)CC/C=C(\C)CC/C=C(\C)CC/C=C(\C)CC/C=C(\C)CC/C=C(\C)CC/C=C(\C)CCC=C(C)C)=C(C)C1=O
- T/C (dose: 100.0 mg/kg/injection, schedule: Q01DX010 (sc), vehicle: saline with Tween-80): 127 % of control
- T/C (dose: 200.0 mg/kg/injection, schedule: Q01DX010 (sc), vehicle: saline with Tween-80): 138 % of control

SMILES: CC(=O)OC1OC(=O)C(C)(C(C)=O)C1C (stereo unspecified)
- T/C (dose: 40.0 mg/kg/injection, schedule: Q04DX003 (ip), vehicle: distilled water + alcohol): 129 % of control [5 of 6 alive on day 11]

SMILES: CC1(c2ccc(Cl)cc2)OC(=O)C(=Cc2ccc([N+](=O)[O-])s2)C(=O)O1 (stereo unspecified)
- survivor count (dose: 2400.0 mg/kg/injection, schedule: Q04DX003 (sc), vehicle: saline with Tween-80): 2 of 6 on day 11

SMILES: O=C(O[Si](Cc1ccccc1)(Cc1ccccc1)Cc1ccccc1)N(CCCl)CCCl
- survivor count (dose: 400.0 mg/kg/injection, schedule: Q04DX003 (sc), vehicle: saline with Tween-80): 2 of 6 on day 11
- survivor count (dose: 800.0 mg/kg/injection, schedule: Q04DX003 (sc), vehicle: saline with Tween-80): 0 of 6 on day 11

SMILES: OCC1OC(n2cnc3c(=S)nc[nH]c32)C(O)C1O (stereo unspecified)
- survivor count [1]: 0 of 3 on day 11
- survivor count (dose: 200.0 mg/kg/injection, schedule: Q01DX010 (sc), vehicle: suspension in saline): 3 of 6 on day 11
- survivor count (dose: 400.0 mg/kg/injection, schedule: Q01DX010 (sc), vehicle: suspension in saline): 1 of 6 on day 11

SMILES: Cn1c2nc(=O)n(-c3ccccc3)c(=O)c-2nc2c1CCCC2
- survivor count (dose: 300.0 mg/kg/injection, schedule: Q04DX003 (sc), vehicle: saline with Tween-80): 3 of 6 on day 11

SMILES: COc1cc2cc3cc4cc(OC)c(OC)cc4c(C)[n+]3cc2cc1OC (tested in a mixture with another compound)
- survivor count (dose: 1200.0 mg/kg/injection, schedule: Q04DX003 (sc), vehicle: suspension in saline): 3 of 6 on day 11
- survivor count (dose: 2400.0 mg/kg/injection, schedule: Q04DX003 (sc), vehicle: suspension in saline): 2 of 6 on day 11

SMILES: CC12CC(C(=O)O)C3(O)CC(C)(C1)CC(C)(C2)C3 (stereo unspecified) (tested in a mixture with another compound)
- survivor count (dose: 2400.0 mg/kg/injection, schedule: Q04DX003 (sc), vehicle: Klucel (hydroxypropylcellulose) (HPC)): 3 of 6 on day 11

SMILES: O=C1C=CC(=O)N1c1ccc(Cl)cc1
- survivor count (dose: 300.0 mg/kg/injection, schedule: Q04DX003 (sc), vehicle: Klucel (hydroxypropylcellulose) (HPC)): 0 of 6 on day 11

SMILES: C=CS(=O)(=O)c1ccccc1
- survivor count [1]: 1 of 2 on day 11

SMILES: Nc1n[nH]c(N)n1
- survivor count (dose: 1600.0 mg/kg/injection, schedule: Q01DX010 (sc), vehicle: saline): 0 of 3 on day 11

SMILES: Cc1c2ccc3ccccc3c2c[n+]2ccccc12
- T/C (dose: 4.69 mg/kg/injection, schedule: Q04DX003 (sc), vehicle: Klucel (hydroxypropylcellulose) (HPC)): 139 % of control
- survivor count (dose: 37.5 mg/kg/injection, schedule: Q04DX003 (sc), vehicle: Klucel (hydroxypropylcellulose) (HPC)): 2 of 6 on day 11

SMILES: CCCCCCNc1nc(NCCCCCC)c2[nH]c(NCCCCCC)nc2n1
- T/C (dose: 150.0 mg/kg/injection, schedule: Q04DX003 (ip), vehicle: saline with Tween-80): 128 % of control [5 of 6 alive on day 11]
- survivor count (dose: 600.0 mg/kg/injection, schedule: Q04DX003 (ip), vehicle: saline with Tween-80): 0 of 6 on day 11
- survivor count (dose: 1200.0 mg/kg/injection, schedule: Q04DX003 (ip), vehicle: saline with Tween-80): 0 of 6 on day 11

SMILES: COC1CC(CC2CCC(C)C(C(C)C(=O)O)O2)OC2(OC(C)(C3CCC(C)(C4OC(C5OC(O)(CO)C(C)CC5C)CC4C)O3)CC2C)C1C (stereo unspecified)
- survivor count (dose: 30.0 mg/kg/injection, schedule: Q04DX003 (sc), vehicle: Klucel (hydroxypropylcellulose) (HPC)): 2 of 6 on day 11

SMILES: Nc1n[n+](-c2ccc(Cl)cc2)no1
- survivor count (dose: 100.0 mg/kg/injection, schedule: Q04DX003 (sc), vehicle: water): 2 of 6 on day 11
- survivor count (dose: 200.0 mg/kg/injection, schedule: Q04DX003 (sc), vehicle: water): 0 of 6 on day 11

SMILES: CCc1ccccc1N1CCN(C(=O)c2cc(OC)c(OC)c(OC)c2)CC1
- survivor count (dose: 800.0 mg/kg/injection, schedule: Q04DX003 (sc), vehicle: Klucel (hydroxypropylcellulose) (HPC)): 3 of 6 on day 11

SMILES: O=NN(CCCl)C(=O)NCCCl
- T/C (dose: 8.0 mg/kg/injection, schedule: Q01DX010 (sc), vehicle: saline): 144 % of control
- survivor count (dose: 32.0 mg/kg/injection, schedule: Q01DX010 (sc), vehicle: suspension in saline): 0 of 3 on day 11
- survivor count (dose: 64.0 mg/kg/injection, schedule: Q01DX010 (sc), vehicle: saline): 0 of 3 on day 11
- survivor count (dose: 64.0 mg/kg/injection, schedule: Q01DX010 (sc), vehicle: suspension in saline): 0 of 3 on day 11
- survivor count (dose: 120.0 mg/kg/injection, schedule: Q04DX003 (sc), vehicle: suspension in saline): 1 of 3 on day 11

SMILES: [Cl][Pt+2][Cl].[NH-]C1CCC1.[NH2-]
- survivor count (dose: 50.0 mg/kg/injection, schedule: Q04DX003 (sc), vehicle: suspension in saline): 0 of 6 on day 11 and 3 of 6 on day 11
- survivor count [2]: 2 of 5 on day 11

SMILES: O=C(C1CO1)C(Cl)(Cl)Cl (stereo unspecified)
- T/C (dose: 75.0 mg/kg/injection, schedule: Q04DX003 (sc), vehicle: saline): 139 % of control
- survivor count (dose: 300.0 mg/kg/injection, schedule: Q04DX003 (sc), vehicle: saline): 0 of 6 on day 11
- survivor count (dose: 600.0 mg/kg/injection, schedule: Q04DX003 (sc), vehicle: saline): 0 of 6 on day 11

SMILES: N#Cc1cn(C2OC(CO)C(O)C2O)c2ncnc(N)c12 (stereo unspecified)
- T/C (dose: 0.25 mg/kg/injection, schedule: Q01DX010 (sc), vehicle: saline): 129 % of control
- survivor count (dose: 1.0 mg/kg/injection, schedule: Q01DX010 (sc), vehicle: saline): 0 of 3 on day 11
- survivor count (dose: 2.0 mg/kg/injection, schedule: Q01DX010 (sc), vehicle: saline): 0 of 3 on day 11

SMILES: CCCCN(CCCC)C(Cl)=Nc1ccccc1
- T/C (dose: 400.0 mg/kg/injection, schedule: Q04DX003 (sc), vehicle: other): 125 % of control

SMILES: CCN(CC)c1ccc2[nH]c3c(C(N)=O)cc(=O)c(=O)c=3oc2c1
- T/C (dose: 600.0 mg/kg/injection, schedule: Q04DX003 (sc), vehicle: saline with Tween-80): 127 % of control

SMILES: CC(=O)OCc1cc(=O)n(C)c2c3c4c(cc12)c(C)cc(=O)n4CO3
- survivor count (dose: 200.0 mg/kg/injection, schedule: Q01DX010 (sc), vehicle: Klucel (hydroxypropylcellulose) (HPC)): 1 of 2 on day 11

SMILES: O=NN(CCCl)C(=O)NC1CCCCC1
- T/C (dose: 12.5 mg/kg/injection, schedule: Q04DX003 (sc), vehicle: Klucel (hydroxypropylcellulose) (HPC)): 127 % of control
- T/C (dose: 16.0 mg/kg/injection, schedule: Q01DX010 (sc), vehicle: saline with Tween-80): 126 % of control [2 of 2 alive on day 11]
- survivor count (dose: 64.0 mg/kg/injection, schedule: Q01DX010 (sc), vehicle: saline with Tween-80): 1 of 2 on day 11
- survivor count (dose: 64.0 mg/kg/injection, schedule: Q04DX003 (sc), vehicle: Klucel (hydroxypropylcellulose) (HPC)): 3 of 6 on day 11

SMILES: CN(C)N=Nc1cccc(C(N)=O)c1
- survivor count (dose: 200.0 mg/kg/injection, schedule: Q04DX003 (sc), vehicle: Klucel (hydroxypropylcellulose) (HPC)): 0 of 6 on day 11, 1 of 6 on day 11, 2 of 6 on day 11
- survivor count (dose: 400.0 mg/kg/injection, schedule: Q04DX003 (sc), vehicle: Klucel (hydroxypropylcellulose) (HPC)): 0 of 6 on day 11

SMILES: O=c1[nH]c2c(ccc3cnccc32)c2c1CCC2
- T/C [2]: 126 % of control
